# The other results are listed elsewhere or left out.
# Tested on: T1, CTL2-GFP (C. trachomatis L2/434/Bu, GFP-expressing)
# T1 construct: L2/434/Bu, GFP-expressing
# Design: species or system HeLa; Intracellular C. trachomatis growth in HeLa cells, bulk GFP fluorescence relative to DMSO
# Settings: bulk GFP, single well; 28.5 h, 10 µM; inhibitor
row,Compound,% of control remaining [%]
1,CCCOc1c(Cl)cc(/C=C2\N=C(c3ccc(OC)cc3)OC2=O)cc1OCC [CBK098846],113.417
2,Cc1nc2cc(-c3nccn3C)nn2c(N2CCN(c3ccc4c(c3)OCCO4)CC2)c1C [CBK286186],127.036
3,CCN(CC)C(=O)c1cccc(NS(=O)(=O)c2cccc(C(=O)O)c2)c1 [CBK296943],100.107
4,CC(C)(C)c1ccc(OCc2nnc(Sc3nc4ccc([N+](=O)[O-])cc4s3)n2-c2ccccc2)cc1 [CBK263366],94.4578
5,CCc1ccc(NC(=O)CN(CCO)Cc2cc(Br)ccc2F)cc1 [CBK305968],138.442
6,COc1cccc(OCc2ccc(Cn3ccn(C(=O)CCCC(C)C)c3=O)cc2)c1 [CBK106638],111.518
7,COc1ccccc1-c1cn2ccnc2c(NCc2ccccc2)n1 [CBK037372],164.052
8,COc1ccc(N2CCN(c3nc(OC)nc(OC)n3)CC2)cc1 [CBK264245],100
9,O=C(CN1C(=O)c2ccccc2S1(=O)=O)Nc1ccccc1-c1ccccc1 [CBK266390],150.762
10,O=C(CSc1nc(-c2ccc(F)cc2)cc(C(F)(F)F)n1)NCCN1CCOCC1 [CBK266121],220.425
11,O=C(O)c1sccc1S(=O)(=O)NCc1ccc(COCC(F)(F)F)cc1 [CBK296706],134.267
12,O=C(N[C@H]1CCN2C(=O)c3cc(-c4ccsc4)ccc3NC(=O)[C@@H]2C1)c1cccs1 [CBK289563],95.2245
13,Cc1cc2c(cc3c(=O)n(CC(=O)NCC4CC4)nc(C)n32)s1 [CBK284097],109.528
14,O=S1(=O)CCN(Cc2cn(-c3ccccc3)nn2)CC1 [CBK113103],126.706
15,Cc1nc2c(C(=O)NC3CCOCC3)cnn2c(C)c1Cc1cccc(Br)c1 [CBK165011],125.897
16,CCN(CC)C(=O)CCn1c(-c2cccnc2)cc2cccnc21 [CBK282160],127.712
17,COc1ccc(N2CCN(C(=O)c3ccc([N+](=O)[O-])o3)CC2)cc1 [CBK091410],33.4758
18,COc1ccc(C2c3cc(OC)c(OC)cc3CC(=O)N2c2cccc(C(=O)O)c2)cc1OC (stereo not shown) [CBK296118],126.403
19,Cc1cc(COc2cc(NC(C)C)ncn2)no1 [CBK115887],142.84
20,Cc1ccc(-n2c(SCC(=O)NCc3ccccc3)nnc2-c2ccccc2O)c(C)c1 [CBK268892],107.606
21,O=C(CCNS(=O)(=O)c1ccccc1)N1CCC(Cc2ccccc2)CC1 [CBK270091],118.616
22,O=C(O)CC(c1ccccc1)c1ccc2c(c1)OCO2 (stereo not shown) [CBK286983],118.45
23,CCOC(=O)c1cn(CC2(CO)CCC2)cc(Oc2ccccc2)c1=O [CBK306698],123.317
24,Cc1cc(-c2sc(N)nc2-c2cccs2)on1 [CBK284492],152.262
25,Clc1ccc(CN2CCc3ccccc3C2)cc1Cl [CBK126395],83.5785
26,COc1ccc(/C=N/NC(=O)c2cc[nH]n2)cc1COc1ccc(Cl)cc1Cl [CBK263708],132.794
27,CC(C)CCCC(=O)n1ccn(CCCOc2ccccc2)c1=O [CBK106561],83.6406

row,Compound,% of control remaining [%]
1,COc1ccc(-c2nc(-c3cc4ccccc4s3)cnc2N)cc1OC [CBK063963],88.7713
2,COc1cc(CNCc2ccccn2)ccc1OCc1ccccc1C [CBK270108C],97.9249
3,CCCCN(C)c1nccnc1-c1ccncc1 [CBK037655],113.45
4,CCCN(CC1CC1)C1CCc2cccc(C(N)=O)c2C1 (stereo not shown) [CBK016579],130.871
5,O=[N+]([O-])c1cc(C(F)(F)F)ccc1NCCCNc1nc(N2CCOCC2)nc2ccccc12 [CBK266567],108.734
6,CCOc1ccc(S(=O)(=O)N2CCN(CCCC#N)CC2)c2cccnc12 [CBK063046],104.723
7,CCc1c(C)nc2ccccc2c1SCCOC(=O)Nc1ccccc1 [CBK155466T],105.875
8,C=C(C)Cn1c(SC(C)C)nnc1-c1ccccc1Cl [CBK200079],86.8175
9,COc1ccc(-c2ccc(C#N)c(SCc3ccncc3)n2)cc1 [CBK269883],70.0818
10,CC1CCN(Cc2ccc(-c3nnn(CC(=O)NCc4ccc(NS(C)(=O)=O)cc4)n3)cc2)CC1 [CBK144588C],108.59
11,COc1ccc(CC(=O)Nc2nc(OC)cnc2/C=C\c2ccccc2)cc1 [CBK145224],124.52
12,Nc1nc2c([C@@H]3O[C@H](CO)[C@H](O)C3O)c[nH]c2c(=O)[nH]1 (stereo partly shown) [CBK201292],106.523
13,Cc1ccccc1-c1nnc2n1CCCN2 [CBK200089],115.524
14,CCOC(=O)c1c(NC(=O)CC2Sc3ccccc3NC2=O)sc(C)c1C (stereo not shown) [CBK263349],100
15,COc1cccc(CN2CCN(C(=O)c3ccco3)CC2)c1OC [CBK074380],110.947
16,O=C(c1ccccc1F)N1C[C@H](c2ccsc2)[C@H]2CN(Cc3cccc(F)c3)CC[C@H]21 [CBK285660],77.6304
17,CC(=O)Cc1nc2ccccc2nc1O [CBK089805],137.565
18,COc1ccccc1OCc1ccccc1 [CBK002814],118.238
19,CC(=O)c1ccc(NC(=O)N[C@H]2CCN3C(=O)[C@H]4CCCN4C(=O)[C@H]23)cc1 [CBK289228],135.358
20,CC(C)n1c(=O)n(CC(=O)N2CCc3ccccc32)c2cccnc21 [CBK283855],109.222
21,Cc1ccc2c(c1)c(C(=O)N1CCn3nc(CO)cc3C1)nn2C [CBK307134],132.9
22,CC(C)S(=O)(=O)n1ccn(-c2cccc(C(F)(F)F)c2)c1=O [CBK106577],152.526
23,Cc1nccn1CC1(O)CCN(CC2=CCC3CC2C3(C)C)CC1 (stereo not shown) [CBK284981],133.825
24,CCN1CC2(CCN(CC(N)=O)CC2)c2ccccc21 [CBK131485],142.285
25,O=C(CN1CC[C@H]2NC(=O)COc3ccccc3CCCC[C@@H]2C1)NCc1ccccn1 [CBK292046],139.91
26,COc1ccc(C(=O)[C@@H]2CCCN(C(=O)OC(C)(C)C)C2)cc1 [CBK284308],88.9284
27,Cc1cccc2cc(CN(Cc3cccnc3)C(=O)Nc3ccccc3Cl)c(=O)[nH]c12 [CBK108869],88.7373

row,Compound,% of control remaining [%]
1,O=C(N[C@H]1CCN2C(=O)N(c3cccc4nsnc34)C(=O)[C@@H]2C1)c1cccs1 [CBK289543],118.54
2,Cc1nn(CCC#N)c(C)c1CCC(=O)NCc1cn2ccccc2n1 [CBK304540],112.103
3,Cc1ccc(C(=O)O)cc1S(=O)(=O)N1CCC(C(=O)O)CC1 [CBK267327],149.328
4,Cc1nc2sccn2c1CN(CCCN(C)C)Cc1ccco1 [CBK283199],116.032
5,CCc1cc2c(NCc3ccccc3)ncnc2s1 [CBK057944],111.061
6,COc1cccc(CN2CCN(S(=O)(=O)c3ccccc3[N+](=O)[O-])CC2)c1OC [CBK264162],100
7,COc1ccc2[nH]cc(CCNC(=O)c3cncnc3)c2c1 [CBK122720],132.37
8,Cc1noc(C)c1NC(=O)c1cc2ccccc2[nH]1 [CBK200303],179.788
9,Cc1nc(NC(=O)Cn2c3c(c4ccccc42)CCC3)nn1C [CBK281377],141.624
10,O=C(O)CNS(=O)(=O)c1ccc(F)cc1 [CBK034464],83.5709
11,Cc1nc(O)cc(C2CCN(C(=O)c3scc4c3CCCC4)CC2)n1 [CBK307452],135.941
12,Cc1noc(C)c1C(=O)N(C)Cc1cc(-c2ccncc2)no1 [CBK306677],108.02
13,Cc1cccc(Cn2nc(C)c(NC(=O)c3ccncc3)c2C)c1 [CBK270126],109.749
14,Cc1cc(C(F)(F)F)nc(CCNC(=O)N(Cc2ccsc2)C2CC2)n1 [CBK307468],108.325
15,CS(=O)(=O)N1CCN(C2CCN(Cc3ccccc3)CC2)CC1 [CBK263485],100
16,COc1ccc(Oc2cncc(OC3CCN(CCc4ccc(F)cc4)C3)n2)cc1OC (stereo not shown) [CBK084409],113.916
17,NC(=O)CN1CC2(CCN(C(=O)OCc3ccccc3)CC2)c2ccccc21 [CBK116309],144.11
18,CCn1c(S)nnc1CNC(=O)c1ccc(Cl)cc1Cl [CBK267152],171.391
19,Cc1ccnn1CCC(=O)N1CCCCC1c1nc2ccccc2[nH]1 (stereo not shown) [CBK282374],108.897
20,COc1ccc(-c2cnc(N)c(N[C@H](C)c3ccccc3)n2)c(OC)c1OC [CBK063747],103.867
21,O=C(Nc1ccc2n(c1=O)C[C@H]1C[C@@H]2CN(C(=O)COc2ccccc2)C1)C1CCCCC1 [CBK289175],148.257
22,CC(C)c1nn(C)c(N(C)C)c1CNCCc1cnn(C)c1 [CBK305135],111.367
23,O=C(NCc1cccs1)c1ccc(-c2ccc(OC(F)(F)F)cc2)nc1 [CBK156221],73.3125
24,CN(C)c1cccc2c(S(=O)(=O)n3c(=O)n(CCc4c[nH]c5ccccc45)c4ccccc43)cccc12 [CBK106511],113.3
25,CCn1c(C2CCN(C(=O)c3ccc(C)c(Cl)c3)CC2)nn(C)c1=O [CBK307280],135.951

# Source: PMC12040169 (PLOS Biology, 2025)
